“And” between values parts separate entries of the source, which are not always exact repeats. Equal entries are not always repeated.
System: Hela nucleus extract containing a mixture of HDAC isoforms
Assay: HDAC enzyme inhibitory assay with Hela nucleus extract
Format: biochemical
Details: 1 µM, mean of three experiments
Method: The HDAC enzyme inhibitory activities of synthesised compounds were investigated by utilising Hela nucleus extract containing a mixture of HDAC isoforms. Percentage inhibitory rate was used to determine the activity of tested compounds (Tables 1 and 2). The Fa series compounds were firstly synthesised for the activity screening. […] To investigate whether aromatic linker could improve the inhibitory activities, structural modifications were performed on current molecules.

For O=C(CCCCCCC(=O)Nc1ccccc1)NO [SAHA, Vorinostat, reference compound], the “HDACs percentage inhibitory rate” value was 58.27 ± 6.06% and 56.23 ± 2.12%.

Reference: article PMC7939570, “Discovery of potent histone deacetylase inhibitors with modified phenanthridine caps” (Journal of Enzyme Inhibition and Medicinal Chemistry, 2021)
